Paper PMC4148129
These are yes or no findings as the source states them, for the method shown. Binding seen in cells or lysates may run through a third protein. Some binding calls cover weakened binding; strength is not graded here.

Chains of the proteins cited; added tags and fusions are not shown.
UniProt Q13330: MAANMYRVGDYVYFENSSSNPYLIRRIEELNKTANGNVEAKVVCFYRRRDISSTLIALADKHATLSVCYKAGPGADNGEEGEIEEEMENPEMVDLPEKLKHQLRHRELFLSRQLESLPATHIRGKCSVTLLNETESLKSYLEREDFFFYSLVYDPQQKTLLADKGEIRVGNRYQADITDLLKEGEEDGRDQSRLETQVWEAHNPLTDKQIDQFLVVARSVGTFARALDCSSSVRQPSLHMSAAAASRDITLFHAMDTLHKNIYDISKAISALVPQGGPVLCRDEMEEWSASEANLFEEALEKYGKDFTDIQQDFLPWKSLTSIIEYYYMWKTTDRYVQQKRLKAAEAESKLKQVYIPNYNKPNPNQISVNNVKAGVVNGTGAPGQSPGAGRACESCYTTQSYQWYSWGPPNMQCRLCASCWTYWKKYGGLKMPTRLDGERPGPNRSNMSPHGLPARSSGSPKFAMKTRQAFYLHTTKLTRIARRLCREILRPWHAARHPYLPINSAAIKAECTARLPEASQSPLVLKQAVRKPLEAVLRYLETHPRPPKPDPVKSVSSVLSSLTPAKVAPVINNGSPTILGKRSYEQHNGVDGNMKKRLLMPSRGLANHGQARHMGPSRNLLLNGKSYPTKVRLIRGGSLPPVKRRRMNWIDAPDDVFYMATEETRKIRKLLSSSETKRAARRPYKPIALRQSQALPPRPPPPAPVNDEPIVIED
UniProt Q92769: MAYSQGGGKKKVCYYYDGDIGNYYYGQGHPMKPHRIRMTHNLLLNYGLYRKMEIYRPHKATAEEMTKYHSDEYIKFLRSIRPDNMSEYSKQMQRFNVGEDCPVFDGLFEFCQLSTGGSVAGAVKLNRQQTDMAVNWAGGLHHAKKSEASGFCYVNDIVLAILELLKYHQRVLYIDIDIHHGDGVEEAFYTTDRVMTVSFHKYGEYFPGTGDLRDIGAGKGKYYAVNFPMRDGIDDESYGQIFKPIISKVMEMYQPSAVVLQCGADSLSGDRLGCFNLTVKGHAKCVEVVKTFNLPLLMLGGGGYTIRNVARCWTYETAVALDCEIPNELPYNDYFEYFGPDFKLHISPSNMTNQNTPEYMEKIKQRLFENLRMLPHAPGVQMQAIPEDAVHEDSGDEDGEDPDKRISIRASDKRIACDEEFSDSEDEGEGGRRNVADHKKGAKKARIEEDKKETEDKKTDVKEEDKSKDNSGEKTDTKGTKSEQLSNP
UniProt P12270: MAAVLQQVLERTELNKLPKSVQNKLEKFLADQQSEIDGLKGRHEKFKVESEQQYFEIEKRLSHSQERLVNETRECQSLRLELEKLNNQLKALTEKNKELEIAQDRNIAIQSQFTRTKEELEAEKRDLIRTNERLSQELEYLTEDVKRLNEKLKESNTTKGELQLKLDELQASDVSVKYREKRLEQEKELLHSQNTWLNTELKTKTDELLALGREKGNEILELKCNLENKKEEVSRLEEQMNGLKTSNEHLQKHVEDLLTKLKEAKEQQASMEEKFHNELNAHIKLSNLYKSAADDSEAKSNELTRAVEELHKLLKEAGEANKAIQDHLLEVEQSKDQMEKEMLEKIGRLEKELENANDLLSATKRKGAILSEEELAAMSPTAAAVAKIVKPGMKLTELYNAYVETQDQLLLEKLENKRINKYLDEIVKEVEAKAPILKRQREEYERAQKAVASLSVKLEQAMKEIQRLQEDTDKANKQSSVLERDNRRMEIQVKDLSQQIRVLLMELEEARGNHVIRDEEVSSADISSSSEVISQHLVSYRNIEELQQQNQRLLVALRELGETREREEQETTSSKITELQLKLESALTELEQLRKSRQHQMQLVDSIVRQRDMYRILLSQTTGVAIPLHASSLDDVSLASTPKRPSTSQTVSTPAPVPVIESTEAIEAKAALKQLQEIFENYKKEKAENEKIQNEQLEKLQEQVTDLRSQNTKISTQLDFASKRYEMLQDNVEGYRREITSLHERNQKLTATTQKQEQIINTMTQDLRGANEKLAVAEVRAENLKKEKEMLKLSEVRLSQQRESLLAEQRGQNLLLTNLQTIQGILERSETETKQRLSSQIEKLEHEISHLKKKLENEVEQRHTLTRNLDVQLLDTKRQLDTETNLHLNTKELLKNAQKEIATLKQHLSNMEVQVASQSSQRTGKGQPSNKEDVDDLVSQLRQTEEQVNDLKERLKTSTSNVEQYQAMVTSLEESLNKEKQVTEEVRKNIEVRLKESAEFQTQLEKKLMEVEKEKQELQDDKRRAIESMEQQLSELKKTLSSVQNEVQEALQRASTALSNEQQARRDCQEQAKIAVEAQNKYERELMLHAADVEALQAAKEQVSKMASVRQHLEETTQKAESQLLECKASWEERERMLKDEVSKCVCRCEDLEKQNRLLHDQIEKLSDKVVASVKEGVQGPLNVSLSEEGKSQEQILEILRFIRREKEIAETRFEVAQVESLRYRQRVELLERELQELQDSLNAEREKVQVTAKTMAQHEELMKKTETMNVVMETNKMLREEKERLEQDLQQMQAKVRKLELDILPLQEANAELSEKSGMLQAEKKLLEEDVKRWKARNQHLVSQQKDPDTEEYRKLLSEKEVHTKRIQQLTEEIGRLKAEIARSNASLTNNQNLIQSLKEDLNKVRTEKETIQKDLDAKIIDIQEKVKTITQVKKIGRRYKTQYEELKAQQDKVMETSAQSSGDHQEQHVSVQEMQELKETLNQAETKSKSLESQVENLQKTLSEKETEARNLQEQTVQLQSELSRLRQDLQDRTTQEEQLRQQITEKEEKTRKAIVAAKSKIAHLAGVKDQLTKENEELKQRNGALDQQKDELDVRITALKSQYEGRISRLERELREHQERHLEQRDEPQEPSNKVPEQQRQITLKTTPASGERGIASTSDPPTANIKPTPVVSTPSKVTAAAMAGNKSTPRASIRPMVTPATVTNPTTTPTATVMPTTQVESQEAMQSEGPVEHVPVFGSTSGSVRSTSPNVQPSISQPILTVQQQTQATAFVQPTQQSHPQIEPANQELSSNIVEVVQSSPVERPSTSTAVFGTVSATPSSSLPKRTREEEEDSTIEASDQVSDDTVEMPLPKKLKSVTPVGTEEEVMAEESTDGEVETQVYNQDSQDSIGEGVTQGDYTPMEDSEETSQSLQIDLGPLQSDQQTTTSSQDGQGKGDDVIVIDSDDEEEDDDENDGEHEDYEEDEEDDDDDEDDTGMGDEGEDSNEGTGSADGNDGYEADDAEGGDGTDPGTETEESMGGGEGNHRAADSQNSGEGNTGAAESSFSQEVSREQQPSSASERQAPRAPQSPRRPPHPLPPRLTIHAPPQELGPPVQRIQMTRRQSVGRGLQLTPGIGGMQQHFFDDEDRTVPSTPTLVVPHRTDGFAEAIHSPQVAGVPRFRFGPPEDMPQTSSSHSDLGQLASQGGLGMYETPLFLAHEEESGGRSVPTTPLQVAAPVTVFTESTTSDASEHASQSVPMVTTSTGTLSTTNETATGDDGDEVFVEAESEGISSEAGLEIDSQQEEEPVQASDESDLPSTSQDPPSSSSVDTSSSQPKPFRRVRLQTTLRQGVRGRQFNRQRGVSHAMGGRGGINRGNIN

Tests used:
[1] = target: Metastasis-associated protein 1 (MTA1), endogenous (human (endogenous in HCT116)) (UniProt Q13330); assay: proximity ligation; in situ PLA (Duolink) in fixed HCT116 cells; mouse anti-MTA1 and rabbit anti-HDAC2; control with rabbit IgG
[2] = target: MTA1-flag (metastasis-associated protein 1, flag-tagged) (UniProt Q13330); assay: co-IP; nuclear and cytoplasmic fractions of HCT116-M1 and HCT116-M3 cells; 1 mg lysate with 1-2 ug primary antibody overnight at 4°C, protein A/G PLUS-agarose 2 h at 4°C, washed with NP-40 buffer (50 mM Tris-HCl pH 8.0, 0.5% NP-40, 150 mM NaCl); Western blot
[3] = target: Metastasis-associated protein 1 (MTA1), endogenous (human (endogenous in HCT116)) (UniProt Q13330); assay: co-IP; cell lysate (cells not stated); 1-2 ug primary antibody overnight at 4°C, protein A/G PLUS-agarose, washed with NP-40 buffer (150 mM NaCl, pH 8.0); Western blot

Substance | binding [1] | binding [2] | binding [3]
Histone deacetylase 2 (HDAC2) (from UniProt Q92769 1-488) | binds | binds | –
nucleoporin TPR (translocated promoter region) (from UniProt P12270 1-2363) | – | – | binds
